Results reported in patent US12729225B2, “Non-canonical SWI/SNF complex and uses thereof” (Dana-Farber Cancer Institute, Inc., priority 2018, dated 2026).

B1: DDX46 (protein, UniProt Q7L014 2-1031, looked up)
Probable ATP-dependent RNA …: GRESRHYRKRSASRGRSGSRSRSRSPSDKRSKRGDDRRSRSRDRDRRRERSRSRDKRRSRSRDRKRLRRSRSRERDRSRERRRSRSRDRRRSRSRSRGRRSRSSSPGNKSKKTENRSRSKEKTDGGESSKEKKKDKDDKEDEKEKDAGNFDQNKLEEEMRKRKERVEKWREEQRKKAMENIGELKKEIEEMKQGKKWSLEDDDDDEDDPAEAEKEGNEMEGEELDPLDAYMEEVKEEVKKFNMRSVKGGGGNEKKSGPTVTKVVTVVTTKKAVVDSDKKKGELMENDQDAMEYSSEEEEVDLQTALTGYQTKQRKLLEPVDHGKIEYEPFRKNFYVEVPELAKMSQEEVNVFRLEMEGITVKGKGCPKPIKSWVQCGISMKILNSLKKHGYEKPTPIQTQAIPAIMSGRDLIGIAKTGSGKTIAFLLPMFRHIMDQRSLEEGEGPIAVIMTPTRELALQITKECKKFSKTLGLRVVCVYGGTGISEQIAELKRGAEIIVCTPGRMIDMLAANSGRVTNLRRVTYVVLDEADRMFDMGFEPQVMRIVDNVRPDRQTVMFSATFPRAMEALARRILSKPIEVQVGGRSVVCSDVEQQVIVIEEEKKFLKLLELLGHYQESGSVIIFVDKQEHADGLLKDLMRASYPCMSLHGGIDQYDRDSIINDFKNGTCKLLVATSVAARGLDVKHLILVVNYSCPNHYEDYVHRAGRTGRAGNKGYAYTFITEDQARYAGDIIKALELSGTAVPPDLEKLWSDFKDQQKAEGKIIKKSSGFSGKGFKFDETEQALANERKKLQKAALGLQDSDDEDAAVDIDEQIESMFNSKKRVKDMAAPGTSSVPAPTAGNAEKLEIAKRLALRINAQKNLGIESQDVMQQATNAILRGGTILAPTVSAKTIAEQLAEKINAKLNYVPLEKQEEERQDGGQNESFKRYEEELEINDFPQTARWKVTSKEALQRISEYSEAAITIRGTYFPPGKEPKEGERKIYLAIESANELAVQKAKAEITRLIKEELIRLQNSYQPTNKGRYKVL
B2: CMAS (protein, UniProt Q8NFW8 1-434, looked up)
N-acylneuraminate …: MDSVEKGAATSVSNPRGRPSRGRPPKLQRNSRGGQGRGVEKPPHLAALILARGGSKGIPLKNIKHLAGVPLIGWVLRAALDSGAFQSVWVSTDHDEIENVAKQFGAQVHRRSSEVSKDSSTSLDAIIEFLNYHNEVDIVGNIQATSPCLHPTDLQKVAEMIREEGYDSVFSVVRRHQFRWSEIQKGVREVTEPLNLNPAKRPRRQDWDGELYENGSFYFAKRHLIEMGYLQGGKMAYYEMRAEHSVDIDVDIDWPIAEQRVLRYGYFGKEKLKEIKLLVCNIDGCLTNGHIYVSGDQKEIISYDVKDAIGISLLKKSGIEVRLISERACSKQTLSSLKLDCKMEVSVSDKLAVVDEWRKEMGLCWKEVAYLGNEVSDEECLKRVGLSGAPADACSTAQKAVGYICKCNGGRGAIREFAEHICLLMEKVNNSCQK
B3: HSD17B12 (protein, UniProt Q53GQ0 1-312, looked up)
Very-long-chain 3-oxoacyl-CoA …: MESALPAAGFLYWVGAGTVAYLALRISYSLFTALRVWGVGNEAGVGPGLGEWAVVTGSTDGIGKSYAEELAKHGMKVVLISRSKDKLDQVSSEIKEKFKVETRTIAVDFASEDIYDKIKTGLAGLEIGILVNNVGMSYEYPEYFLDVPDLDNVIKKMININILSVCKMTQLVLPGMVERSKGAILNISSGSGMLPVPLLTIYSATKTFVDFFSQCLHEEYRSKGVFVQSVLPYFVATKLAKIRKPTLDKPSPETFVKSAIKTVGLQSRTNGYLIHALMGSIISNLPSWIYLKIVMNMNKSTRAHYLKKTKKN
B4: PTPLAD1 (protein, UniProt Q9P035 1-362, looked up)
Very-long-chain …: MENQVLTPHVYWAQRHRELYLRVELSDVQNPAISITENVLHFKAQGHGAKGDNVYEFHLEFLDLVKPEPVYKLTQRQVNITVQKKVSQWWERLTKQEKRPLFLAPDFDRWLDESDAEMELRAKEEERLNKLRLESEGSPETLTNLRKGYLFMYNLVQFLGFSWIFVNLTVRFCILGKESFYDTFHTVADMMYFCQMLAVVETINAAIGVTTSPVLPSLIQLLGRNFILFIIFGTMEEMQNKAVVFFVFYLWSAIEIFRYSFYMLTCIDMDWKVLTWLRYTLWIPLYPLGCLAEAVSVIQSIPIFNETGRFSFTLPYPVKIKVRFSFFLQIYLIMIFLGLYINFRHLYKQRRRRYGQKKKKIH
B5: KRT14 (protein, UniProt P02533 1-472, looked up)
Keratin, type I cytoskeletal …: MTTCSRQFTSSSSMKGSCGIGGGIGGGSSRISSVLAGGSCRAPSTYGGGLSVSSSRFSSGGACGLGGGYGGGFSSSSSSFGSGFGGGYGGGLGAGLGGGFGGGFAGGDGLLVGSEKVTMQNLNDRLASYLDKVRALEEANADLEVKIRDWYQRQRPAEIKDYSPYFKTIEDLRNKILTATVDNANVLLQIDNARLAADDFRTKYETELNLRMSVEADINGLRRVLDELTLARADLEMQIESLKEELAYLKKNHEEEMNALRGQVGGDVNVEMDAAPGVDLSRILNEMRDQYEKMAEKNRKDAEEWFFTKTEELNREVATNSELVQSGKSEISELRRTMQNLEIELQSQLSMKASLENSLEETKGRYCMQLAQIQEMIGSVEEQLAQLRCEMEQQNQEYKILLDVKTRLEQEIATYRRLLEGEDAHLSSSQFSSGSQSSRDVTSSSRQIRTKVMDVHDGKVVSTHEQVLRTKN
B6: AGK (protein, UniProt Q53H12 1-422, looked up)
Acylglycerol kinase, …: MTVFFKTLRNHWKKTTAGLCLLTWGGHWLYGKHCDNLLRRAACQEAQVFGNQLIPPNAQVKKATVFLNPAACKGKARTLFEKNAAPILHLSGMDVTIVKTDYEGQAKKLLELMENTDVIIVAGGDGTLQEVVTGVLRRTDEATFSKIPIGFIPLGETSSLSHTLFAESGNKVQHITDATLAIVKGETVPLDVLQIKGEKEQPVFAMTGLRWGSFRDAGVKVSKYWYLGPLKIKAAHFFSTLKEWPQTHQASISYTGPTERPPNEPEETPVQRPSLYRRILRRLASYWAQPQDALSQEVSPEVWKDVQLSTIELSITTRNNQLDPTSKEDFLNICIEPDTISKGDFITIGSRKVRNPKLHVEGTECLQASQCTLLIPEGAGGSFSIDSEEYEAMPVEVKLLPRKLQFFCDPRKREQMLTSPTQ
B7: FBL (protein, UniProt P22087 1-321, looked up)
rRNA 2'-O-methyltransferase …: MKPGFSPRGGGFGGRGGFGDRGGRGGRGGFGGGRGRGGGFRGRGRGGGGGGGGGGGGGRGGGGFHSGGNRGRGRGGKRGNQSGKNVMVEPHRHEGVFICRGKEDALVTKNLVPGESVYGEKRVSISEGDDKIEYRAWNPFRSKLAAAILGGVDQIHIKPGAKVLYLGAASGTTVSHVSDIVGPDGLVYAVEFSHRSGRDLINLAKKRTNIIPVIEDARHPHKYRMLIAMVDVIFADVAQPDQTRIVALNAHTFLRNGGHFVISIKANCIDSTASAEAVFASEVKKMQQENMKPQEQLTLEPYERDHAVVVGVYRPPPKVKN
B8: KRT1 (protein, UniProt P04264 2-644, looked up)
Keratin, type II cytoskeletal …: SRQFSSRSGYRSGGGFSSGSAGIINYQRRTTSSSTRRSGGGGGRFSSCGGGGGSFGAGGGFGSRSLVNLGGSKSISISVARGGGRGSGFGGGYGGGGFGGGGFGGGGFGGGGIGGGGFGGFGSGGGGFGGGGFGGGGYGGGYGPVCPPGGIQEVTINQSLLQPLNVEIDPEIQKVKSREREQIKSLNNQFASFIDKVRFLEQQNQVLQTKWELLQQVDTSTRTHNLEPYFESFINNLRRRVDQLKSDQSRLDSELKNMQDMVEDYRNKYEDEINKRTNAENEFVTIKKDVDGAYMTKVDLQAKLDNLQQEIDFLTALYQAELSQMQTQISETNVILSMDNNRSLDLDSIIAEVKAQYEDIAQKSKAEAESLYQSKYEELQITAGRHGDSVRNSKIEISELNRVIQRLRSEIDNVKKQISNLQQSISDAEQRGENALKDAKNKLNDLEDALQQAKEDLARLLRDYQELMNTKLALDLEIATYRTLLEGEESRMSGECAPNVSVSVSTSHTTISGGGSRGGGGGGYGSGGSSYGSGGGSYGSGGGGGGGRGSYGSGGSSYGSGGGSYGSGGGGGGHGSYGSGSSSGGYRGGSGGGGGGSSGGRGSGGGSSGGSIGGRGSSSGGVKSSGGSSSVKFVSTTYSGVTR
B9: ATP5O (protein, UniProt P48047 24-213, looked up)
ATP synthase peripheral stalk …: FAKLVRPPVQVYGIEGRYATALYSAASKQNKLEQVEKELLRVAQILKEPKVAASVLNPYVKRSIKVKSLNDITAKERFSPLTTNLINLLAENGRLSNTQGVVSAFSTMMSVHRGEVPCTVTSASPLEEATLSELKTVLKSFLSQGQVLKLEAKTDPSILGGMIVRIGEKYVDMSVKTKIQKLGRAMREIV
B10: ATP5C1 (protein, UniProt P36542 26-298, looked up)
ATP synthase F(1) complex …: ATLKDITRRLKSIKNIQKITKSMKMVAAAKYARAERELKPARIYGLGSLALYEKADIKGPEDKKKHLLIGVSSDRGLCGAIHSSIAKQMKSEVATLTAAGKEVMLVGIGDKIRGILYRTHSDQFLVAFKEVGRKPPTFGDASVIALELLNSGYEFDEGSIIFNKFRSVISYKTEEKPIFSLNTVASADSMSIYDDIDADVLQNYQEYNLANIIYYSLKESTTSEQSARMTAMDNASKNASEMIDKLTLTFNRTRQAVITKELIEIISGAAALD
B11: LONP1 (protein, UniProt P36776 68-959, looked up)
Lon protease homolog, …: FWEASSRGGGAFSGGEDASEGGAEEGAGGAGGSAGAGEGPVITALTPMTIPDVFPHLPLIAITRNPVFPRFIKIIEVKNKKLVELLRRKVRLAQPYVGVFLKRDDSNESDVVESLDEIYHTGTFAQIHEMQDLGDKLRMIVMGHRRVHISRQLEVEPEEPEAENKHKPRRKSKRGKKEAEDELSARHPAELAMEPTPELPAEVLMVEVENVVHEDFQVTEEVKALTAEIVKTIRDIIALNPLYRESVLQMMQAGQRVVDNPIYLSDMGAALTGAESHELQDVLEETNIPKRLYKALSLLKKEFELSKLQQRLGREVEEKIKQTHRKYLLQEQLKIIKKELGLEKDDKDAIEEKFRERLKELVVPKHVMDVVDEELSKLGLLDNHSSEFNVTRNYLDWLTSIPWGKYSNENLDLARAQAVLEEDHYGMEDVKKRILEFIAVSQLRGSTQGKILCFYGPPGVGKTSIARSIARALNREYFRFSVGGMTDVAEIKGHRRTYVGAMPGKIIQCLKKTKTENPLILIDEVDKIGRGYQGDPSSALLELLDPEQNANFLDHYLDVPVDLSKVLFICTANVTDTIPEPLRDRMEMINVSGYVAQEKLAIAERYLVPQARALCGLDESKAKLSSDVLTLLIKQYCRESGVRNLQKQVEKVLRKSAYKIVSGEAESVEVTPENLQDFVGKPVFTVERMYDVTPPGVVMGLAWTAMGGSTLFVETSLRRPQDKDAKGDKDGSLEVTGQLGEVMKESARIAYTFARAFLMQHAPANDYLVTSHIHLHVPEGATPKDGPSAGCTIVTALLSLAMGRPVRQNLAMTGEVSLTGKILPVGGIKEKTIAAKRAGVTCIVLPAENKKDFYDLAAFITEGLEVHFVEHYREIFDIAFPDEQAEALAVER

System: mSWI/SNF complexes
Experiment: mSWI/SNF complex purification with HA-tagged baits and mass spectrometry (peptide counts)
Parameters: species or system human
Details: 293_HA-BRD7: HA-BRD7 bait purification, total peptide count per co-purified protein

Going from B1 to B2, the Total falls from 9 to 8.

B3 and B4 are the same in Total: 8 for the first, 8 for the second.

B5 and B6 are the same in Total: 7 for the first, 7 for the second.

Compared with B7, B8 is higher in Total: 7 for the first, 48 for the second.

B9 and B10 are the same in Total: 7 for the first, 7 for the second.

B11 showed a Total of 7.

Same assay, conditions: 293_HA-BRD7: HA-BRD7 bait purification, unique peptide count per co-purified protein

B1 and B2 are the same in Unique: 7 for the first, 7 for the second.

B3 and B4 are the same in Unique: 7 for the first, 7 for the second.

B5 and B6 are the same in Unique: 7 for the first, 7 for the second.

First: B7
Second: B8
The Unique of the first is lower: 7 for the first, 35 for the second.

B9 and B10 are the same in Unique: 7 for the first, 7 for the second.

B11 gave a Unique of 7.

Same assay, conditions: 293_HA-DPF2 purification, total peptides

B6 and B10 are the same in Total: 1 for the first, 1 for the second.

Same assay, conditions: 293_HA-DPF2 purification, unique peptides

B6 and B10 are the same in Unique: 1 for the first, 1 for the second.
